Experiment [1] concerns the target T1, SH3RF3 (SH3 domain containing ring finger 3) (UniProt Q8TEJ3).
T1 sequence: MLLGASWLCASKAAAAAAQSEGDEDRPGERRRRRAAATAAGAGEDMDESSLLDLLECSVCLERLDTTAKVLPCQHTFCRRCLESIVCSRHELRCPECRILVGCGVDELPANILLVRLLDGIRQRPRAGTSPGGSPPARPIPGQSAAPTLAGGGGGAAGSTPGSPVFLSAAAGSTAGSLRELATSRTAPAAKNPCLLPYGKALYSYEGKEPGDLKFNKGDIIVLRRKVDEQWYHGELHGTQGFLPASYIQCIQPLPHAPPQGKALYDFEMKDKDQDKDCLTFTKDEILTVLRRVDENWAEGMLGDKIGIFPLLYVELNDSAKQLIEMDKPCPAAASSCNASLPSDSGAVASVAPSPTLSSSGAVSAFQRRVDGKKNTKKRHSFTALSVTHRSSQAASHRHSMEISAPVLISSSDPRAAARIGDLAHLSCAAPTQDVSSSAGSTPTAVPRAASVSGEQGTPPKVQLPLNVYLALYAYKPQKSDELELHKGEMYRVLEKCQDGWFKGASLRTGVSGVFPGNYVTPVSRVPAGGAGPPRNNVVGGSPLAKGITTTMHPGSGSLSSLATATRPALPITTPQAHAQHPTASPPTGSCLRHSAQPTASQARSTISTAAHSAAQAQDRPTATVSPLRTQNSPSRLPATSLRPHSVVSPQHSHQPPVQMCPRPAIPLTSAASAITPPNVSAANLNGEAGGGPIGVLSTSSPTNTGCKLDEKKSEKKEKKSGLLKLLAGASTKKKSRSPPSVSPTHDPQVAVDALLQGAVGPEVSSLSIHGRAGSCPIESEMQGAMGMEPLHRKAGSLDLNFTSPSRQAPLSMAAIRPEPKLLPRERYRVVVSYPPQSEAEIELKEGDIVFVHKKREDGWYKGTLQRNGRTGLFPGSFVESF
Briefly: co-IP; 293T cells transfected with overexpression plasmids 48 h before; lysate with control IgG or immunoprecipitating antibody overnight at 4 °C, protein A/G agarose beads 2 h, five washes with lysis buffer, Western blot; reciprocal. In general terms: Immunoblotting shows a protein as a band on a membrane.

By UniProt entry, the sequences of proteins in these tests, tags left out.
UniProt Q9UQF2: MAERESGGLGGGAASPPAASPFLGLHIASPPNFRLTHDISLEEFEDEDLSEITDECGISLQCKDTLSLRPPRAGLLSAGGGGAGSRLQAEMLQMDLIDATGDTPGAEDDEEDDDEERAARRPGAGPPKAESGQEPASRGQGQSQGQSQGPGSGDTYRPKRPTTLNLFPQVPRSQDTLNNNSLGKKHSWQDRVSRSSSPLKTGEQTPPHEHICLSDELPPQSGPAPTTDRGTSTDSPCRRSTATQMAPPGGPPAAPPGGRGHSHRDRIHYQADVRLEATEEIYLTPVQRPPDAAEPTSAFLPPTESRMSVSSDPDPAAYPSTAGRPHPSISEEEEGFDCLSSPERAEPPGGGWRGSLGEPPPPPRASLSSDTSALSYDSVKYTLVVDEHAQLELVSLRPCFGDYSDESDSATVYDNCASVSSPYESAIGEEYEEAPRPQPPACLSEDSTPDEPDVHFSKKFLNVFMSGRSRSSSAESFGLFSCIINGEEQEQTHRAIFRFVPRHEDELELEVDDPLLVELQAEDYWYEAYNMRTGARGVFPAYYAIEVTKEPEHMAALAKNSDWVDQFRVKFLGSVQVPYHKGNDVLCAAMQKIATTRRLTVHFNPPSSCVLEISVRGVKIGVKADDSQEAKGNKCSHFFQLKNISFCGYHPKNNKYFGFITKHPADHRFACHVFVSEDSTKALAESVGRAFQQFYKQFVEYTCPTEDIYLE
UniProt O14733: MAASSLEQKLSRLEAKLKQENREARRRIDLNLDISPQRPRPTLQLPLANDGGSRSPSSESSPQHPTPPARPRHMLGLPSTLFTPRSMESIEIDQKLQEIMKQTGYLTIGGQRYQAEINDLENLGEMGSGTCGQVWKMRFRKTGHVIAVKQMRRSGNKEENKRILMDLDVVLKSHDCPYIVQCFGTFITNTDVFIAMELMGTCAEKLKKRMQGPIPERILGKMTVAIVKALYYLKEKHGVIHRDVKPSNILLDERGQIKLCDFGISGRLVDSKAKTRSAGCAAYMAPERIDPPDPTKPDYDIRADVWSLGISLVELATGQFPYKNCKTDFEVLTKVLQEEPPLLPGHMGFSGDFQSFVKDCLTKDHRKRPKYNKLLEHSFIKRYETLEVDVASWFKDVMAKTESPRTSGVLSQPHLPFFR

Experiment [2] deals with T2, JIP3 in MCF10AT cells (human (endogenous in MCF10AT)) (UniProt Q9UPT6).
T2 sequence: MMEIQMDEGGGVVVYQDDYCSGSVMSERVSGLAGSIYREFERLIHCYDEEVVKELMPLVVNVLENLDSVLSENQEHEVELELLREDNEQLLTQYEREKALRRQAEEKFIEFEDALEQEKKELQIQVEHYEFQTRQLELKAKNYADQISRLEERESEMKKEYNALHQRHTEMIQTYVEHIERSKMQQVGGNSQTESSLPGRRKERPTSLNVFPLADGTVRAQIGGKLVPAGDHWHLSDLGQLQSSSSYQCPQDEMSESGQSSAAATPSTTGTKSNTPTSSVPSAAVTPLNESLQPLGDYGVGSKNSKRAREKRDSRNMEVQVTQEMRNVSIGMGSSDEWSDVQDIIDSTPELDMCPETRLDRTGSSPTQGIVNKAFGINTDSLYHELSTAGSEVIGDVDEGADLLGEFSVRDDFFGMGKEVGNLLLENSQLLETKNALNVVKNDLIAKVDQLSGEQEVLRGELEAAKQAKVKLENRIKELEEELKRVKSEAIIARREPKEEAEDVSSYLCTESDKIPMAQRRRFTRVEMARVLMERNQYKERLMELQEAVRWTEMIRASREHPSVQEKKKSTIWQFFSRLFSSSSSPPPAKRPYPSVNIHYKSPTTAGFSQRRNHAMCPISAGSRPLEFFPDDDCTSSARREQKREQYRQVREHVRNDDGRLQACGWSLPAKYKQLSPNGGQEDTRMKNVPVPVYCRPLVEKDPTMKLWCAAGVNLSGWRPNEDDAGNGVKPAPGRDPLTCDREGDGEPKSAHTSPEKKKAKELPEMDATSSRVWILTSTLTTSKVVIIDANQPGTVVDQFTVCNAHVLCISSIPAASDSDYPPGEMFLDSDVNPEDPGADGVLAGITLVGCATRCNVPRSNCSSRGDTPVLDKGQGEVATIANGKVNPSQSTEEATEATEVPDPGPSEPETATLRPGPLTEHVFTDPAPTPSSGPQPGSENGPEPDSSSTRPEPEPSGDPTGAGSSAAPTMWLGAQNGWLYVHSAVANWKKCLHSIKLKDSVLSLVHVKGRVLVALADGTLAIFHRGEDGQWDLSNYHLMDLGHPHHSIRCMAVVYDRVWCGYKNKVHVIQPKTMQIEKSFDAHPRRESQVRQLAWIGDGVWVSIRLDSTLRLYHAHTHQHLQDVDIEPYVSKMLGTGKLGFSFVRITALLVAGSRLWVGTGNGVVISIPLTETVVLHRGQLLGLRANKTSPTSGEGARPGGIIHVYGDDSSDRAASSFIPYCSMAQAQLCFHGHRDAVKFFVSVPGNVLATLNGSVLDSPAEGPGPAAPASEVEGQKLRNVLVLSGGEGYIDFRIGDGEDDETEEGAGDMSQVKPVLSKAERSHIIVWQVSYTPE
Briefly: co-IP; MCF10AT cells; with or without SH3RF3 overexpression (JIP3 co-IPs); with or without JIP3 knockdown by two siRNAs (SH3RF3-JNK1/2 co-IP).

For experiment [3], the target named is T1, SH3RF3 (SH3 domain containing ring finger 3). Kind of experiment: co-IP; sequential co-IP of SH3RF3, JIP3 and MKK7 in 293T cells.
For experiment [4], the target named is T3, JIP3 (UniProt Q9UPT6).
T3 sequence: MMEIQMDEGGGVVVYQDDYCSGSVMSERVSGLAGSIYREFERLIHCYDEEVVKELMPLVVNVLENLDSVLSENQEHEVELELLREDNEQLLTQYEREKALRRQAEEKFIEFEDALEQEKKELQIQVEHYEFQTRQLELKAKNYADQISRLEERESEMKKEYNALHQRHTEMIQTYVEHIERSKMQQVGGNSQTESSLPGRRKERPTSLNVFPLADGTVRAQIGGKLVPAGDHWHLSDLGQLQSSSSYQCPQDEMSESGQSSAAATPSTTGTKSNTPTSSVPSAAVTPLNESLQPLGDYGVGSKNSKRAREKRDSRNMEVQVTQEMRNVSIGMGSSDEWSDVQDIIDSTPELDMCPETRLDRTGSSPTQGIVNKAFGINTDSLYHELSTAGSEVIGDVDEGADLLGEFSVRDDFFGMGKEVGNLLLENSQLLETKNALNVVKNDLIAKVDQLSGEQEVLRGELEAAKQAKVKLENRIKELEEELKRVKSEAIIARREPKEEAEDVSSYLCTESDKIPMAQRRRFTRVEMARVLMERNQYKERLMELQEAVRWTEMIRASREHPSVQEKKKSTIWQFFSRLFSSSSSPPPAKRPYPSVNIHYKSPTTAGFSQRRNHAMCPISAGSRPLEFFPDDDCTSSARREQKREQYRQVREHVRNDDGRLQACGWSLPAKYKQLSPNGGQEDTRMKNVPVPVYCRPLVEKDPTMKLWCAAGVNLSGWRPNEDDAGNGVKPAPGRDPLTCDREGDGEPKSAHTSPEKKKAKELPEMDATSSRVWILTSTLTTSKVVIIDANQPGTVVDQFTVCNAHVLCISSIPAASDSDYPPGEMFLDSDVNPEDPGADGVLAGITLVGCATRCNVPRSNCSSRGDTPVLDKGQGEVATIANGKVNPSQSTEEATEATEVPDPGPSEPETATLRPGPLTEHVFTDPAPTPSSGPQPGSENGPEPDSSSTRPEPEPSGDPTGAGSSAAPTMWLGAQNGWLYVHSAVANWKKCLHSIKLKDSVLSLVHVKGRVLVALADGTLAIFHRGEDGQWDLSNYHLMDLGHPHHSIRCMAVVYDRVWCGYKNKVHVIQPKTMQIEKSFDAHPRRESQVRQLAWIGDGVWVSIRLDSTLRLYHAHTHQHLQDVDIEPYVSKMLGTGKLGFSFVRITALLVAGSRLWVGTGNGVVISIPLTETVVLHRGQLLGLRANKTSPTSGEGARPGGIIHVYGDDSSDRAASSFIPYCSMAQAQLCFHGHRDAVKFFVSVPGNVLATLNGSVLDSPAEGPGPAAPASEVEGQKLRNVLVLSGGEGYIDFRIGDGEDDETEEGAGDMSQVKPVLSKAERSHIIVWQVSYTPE
The experiment is described as above.

These are yes or no findings as the source states them, for the method shown. Binding seen in cells or lysates may run through a third protein. Some entries that bind do so weakly or less than the wild type.

Regarding JIP1 (from UniProt Q9UQF2 1-711), the binding entry in experiment [1] is “binds”.
Regarding “JNK2 in MCF10AT cells (from UniProt P45984 1-424) (enzyme)”, the binding entry in experiment [2] is listed as “binds”.
Consider “MAP kinase kinase 7 (MKK7) (from UniProt O14733 1-419) (enzyme)”, for which the binding entry in experiment [1], in experiment [3] and in experiment [4] was “binds” throughout.
For the molecule “MKK7 in MCF10AT cells (from UniProt O14733 1-419) (enzyme)”, the binding result in experiment [2] was “binds”.

B1: JIP2 (protein, UniProt Q13387 1-824)
chain: MADRAEMFSLSTFHSLSPPGCRPPQDISLEEFDDEDLSEITDDCGLGLSYDSDHCEKDSLSLGRSEQPHPICSFQDDFQEFEMIDDNEEEDDEDEEEEEEEEEGDGEGQEGGDPGSEAPAPGPLIPSPSVEEPHKHRPTTLRLTTLGAQDSLNNNGGFDLVRPASWQETALCSPAPEALRELPGPLPATDTGPGGAQSPVRPGCDCEGNRPAEPPAPGGTSPSSDPGIEADLRSRSSGGRGGRRSSQELSSPGSDSEDAGGARLGRMISSISETELELSSDGGSSSSGRSSHLTNSIEEASSPASEPEPPREPPRRPAFLPVGPDDTNSEYESGSESEPDLSEDADSPWLLSNLVSRMISEGSSPIRCPGQCLSPAPRPPGEPVSPAGGAAQDSQDPEAAAGPGGVELVDMETLCAPPPPAPAAPRPGPAQPGPCLFLSNPTRDTITPLWAAPGRAARPGRACSAACSEEEDEEDDEEEEDAEDSAGSPGGRGTGPSAPRDASLVYDAVKYTLVVDEHTQLELVSLRRCAGLGHDSEEDSGGEASEEEAGAALLGGGQVSGDTSPDSPDLTFSKKFLNVFVNSTSRSSSTESFGLFSCLVNGEEREQTHRAVFRFIPRHPDELELDVDDPVLVEAEEDDFWFRGFNMRTGERGVFPAFYAHAVPGPAKDLLGSKRSPCWVERFDVQFLGSVEVPCHQGNGILCAAMQKIATARKLTVHLRPPASCDLEISLRGVKLSLSGGGPEFQRCSHFFQMKNISFCGCHPRNSCYFGFITKHPLLSRFACHVFVSQESMRPVAQSVGRAFLEYYQEHLAYACPTEDIYLE
Regarding B1, the binding result in experiment [1] is on record as “binds”.

B2: MAP kinase kinase 4 (MKK4) (enzyme, UniProt P45985 1-399)
chain: MAAPSPSGGGGSGGGSGSGTPGPVGSPAPGHPAVSSMQGKRKALKLNFANPPFKSTARFTLNPNPTGVQNPHIERLRTHSIESSGKLKISPEQHWDFTAEDLKDLGEIGRGAYGSVNKMVHKPSGQIMAVKRIRSTVDEKEQKQLLMDLDVVMRSSDCPYIVQFYGALFREGDCWICMELMSTSFDKFYKYVYSVLDDVIPEEILGKITLATVKALNHLKENLKIIHRDIKPSNILLDRSGNIKLCDFGISGQLVDSIAKTRDAGCRPYMAPERIDPSASRQGYDVRSDVWSLGITLYELATGRFPYPKWNSVFDQLTQVVKGDPPQLSNSEEREFSPSFINFVNLCLTKDESKRPKYKELLKHPFILMYEERAVEVACYVCKILDQMPATPSSPMYVD
For B2, the binding result in experiment [1] is on record as “binds”.

B3: JIP3 (protein, UniProt Q9UPT6 1-1336)
chain: MMEIQMDEGGGVVVYQDDYCSGSVMSERVSGLAGSIYREFERLIHCYDEEVVKELMPLVVNVLENLDSVLSENQEHEVELELLREDNEQLLTQYEREKALRRQAEEKFIEFEDALEQEKKELQIQVEHYEFQTRQLELKAKNYADQISRLEERESEMKKEYNALHQRHTEMIQTYVEHIERSKMQQVGGNSQTESSLPGRRKERPTSLNVFPLADGTVRAQIGGKLVPAGDHWHLSDLGQLQSSSSYQCPQDEMSESGQSSAAATPSTTGTKSNTPTSSVPSAAVTPLNESLQPLGDYGVGSKNSKRAREKRDSRNMEVQVTQEMRNVSIGMGSSDEWSDVQDIIDSTPELDMCPETRLDRTGSSPTQGIVNKAFGINTDSLYHELSTAGSEVIGDVDEGADLLGEFSVRDDFFGMGKEVGNLLLENSQLLETKNALNVVKNDLIAKVDQLSGEQEVLRGELEAAKQAKVKLENRIKELEEELKRVKSEAIIARREPKEEAEDVSSYLCTESDKIPMAQRRRFTRVEMARVLMERNQYKERLMELQEAVRWTEMIRASREHPSVQEKKKSTIWQFFSRLFSSSSSPPPAKRPYPSVNIHYKSPTTAGFSQRRNHAMCPISAGSRPLEFFPDDDCTSSARREQKREQYRQVREHVRNDDGRLQACGWSLPAKYKQLSPNGGQEDTRMKNVPVPVYCRPLVEKDPTMKLWCAAGVNLSGWRPNEDDAGNGVKPAPGRDPLTCDREGDGEPKSAHTSPEKKKAKELPEMDATSSRVWILTSTLTTSKVVIIDANQPGTVVDQFTVCNAHVLCISSIPAASDSDYPPGEMFLDSDVNPEDPGADGVLAGITLVGCATRCNVPRSNCSSRGDTPVLDKGQGEVATIANGKVNPSQSTEEATEATEVPDPGPSEPETATLRPGPLTEHVFTDPAPTPSSGPQPGSENGPEPDSSSTRPEPEPSGDPTGAGSSAAPTMWLGAQNGWLYVHSAVANWKKCLHSIKLKDSVLSLVHVKGRVLVALADGTLAIFHRGEDGQWDLSNYHLMDLGHPHHSIRCMAVVYDRVWCGYKNKVHVIQPKTMQIEKSFDAHPRRESQVRQLAWIGDGVWVSIRLDSTLRLYHAHTHQHLQDVDIEPYVSKMLGTGKLGFSFVRITALLVAGSRLWVGTGNGVVISIPLTETVVLHRGQLLGLRANKTSPTSGEGARPGGIIHVYGDDSSDRAASSFIPYCSMAQAQLCFHGHRDAVKFFVSVPGNVLATLNGSVLDSPAEGPGPAAPASEVEGQKLRNVLVLSGGEGYIDFRIGDGEDDETEEGAGDMSQVKPVLSKAERSHIIVWQVSYTPE
On to B3, for which the binding result in experiment [1] and in experiment [3] was “binds” throughout.

The record behind these values is PMC7237486.
